Our source for the binding values is article doi:10.1101/2025.08.13.669519.

Protein sequences, listed by entry. Tags and fused reporters are not part of them. Residues count along the entry.
UniProt P02649, residues 19-317: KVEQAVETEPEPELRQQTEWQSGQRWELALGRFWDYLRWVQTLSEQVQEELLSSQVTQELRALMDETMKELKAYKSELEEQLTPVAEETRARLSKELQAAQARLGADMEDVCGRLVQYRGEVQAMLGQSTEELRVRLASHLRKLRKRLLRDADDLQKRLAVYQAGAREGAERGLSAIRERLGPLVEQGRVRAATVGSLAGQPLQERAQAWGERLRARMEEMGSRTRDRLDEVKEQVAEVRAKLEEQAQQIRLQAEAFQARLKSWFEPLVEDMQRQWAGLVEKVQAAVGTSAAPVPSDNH

For this experiment, the target named is Apolipoprotein E3 (human) (UniProt P02649). The experiment is described as follows: static light scattering.

Results are given in words; binding and its absence hold for the method and conditions named. Some entries that bind do so weakly or less than the wild type.

Take “Apolipoprotein E3 (from UniProt P02649 19-317)”: the binding result is “binds weakly”.
